Results published in the supplement of paper PMC10849652.
Some of the results follow.

The chains behind the UniProt entries cited, without tags or fusion partners. Where a name states a change or a piece, a line headed by the entry shows the natural chain unless it says otherwise.
UniProt Q9NNW5: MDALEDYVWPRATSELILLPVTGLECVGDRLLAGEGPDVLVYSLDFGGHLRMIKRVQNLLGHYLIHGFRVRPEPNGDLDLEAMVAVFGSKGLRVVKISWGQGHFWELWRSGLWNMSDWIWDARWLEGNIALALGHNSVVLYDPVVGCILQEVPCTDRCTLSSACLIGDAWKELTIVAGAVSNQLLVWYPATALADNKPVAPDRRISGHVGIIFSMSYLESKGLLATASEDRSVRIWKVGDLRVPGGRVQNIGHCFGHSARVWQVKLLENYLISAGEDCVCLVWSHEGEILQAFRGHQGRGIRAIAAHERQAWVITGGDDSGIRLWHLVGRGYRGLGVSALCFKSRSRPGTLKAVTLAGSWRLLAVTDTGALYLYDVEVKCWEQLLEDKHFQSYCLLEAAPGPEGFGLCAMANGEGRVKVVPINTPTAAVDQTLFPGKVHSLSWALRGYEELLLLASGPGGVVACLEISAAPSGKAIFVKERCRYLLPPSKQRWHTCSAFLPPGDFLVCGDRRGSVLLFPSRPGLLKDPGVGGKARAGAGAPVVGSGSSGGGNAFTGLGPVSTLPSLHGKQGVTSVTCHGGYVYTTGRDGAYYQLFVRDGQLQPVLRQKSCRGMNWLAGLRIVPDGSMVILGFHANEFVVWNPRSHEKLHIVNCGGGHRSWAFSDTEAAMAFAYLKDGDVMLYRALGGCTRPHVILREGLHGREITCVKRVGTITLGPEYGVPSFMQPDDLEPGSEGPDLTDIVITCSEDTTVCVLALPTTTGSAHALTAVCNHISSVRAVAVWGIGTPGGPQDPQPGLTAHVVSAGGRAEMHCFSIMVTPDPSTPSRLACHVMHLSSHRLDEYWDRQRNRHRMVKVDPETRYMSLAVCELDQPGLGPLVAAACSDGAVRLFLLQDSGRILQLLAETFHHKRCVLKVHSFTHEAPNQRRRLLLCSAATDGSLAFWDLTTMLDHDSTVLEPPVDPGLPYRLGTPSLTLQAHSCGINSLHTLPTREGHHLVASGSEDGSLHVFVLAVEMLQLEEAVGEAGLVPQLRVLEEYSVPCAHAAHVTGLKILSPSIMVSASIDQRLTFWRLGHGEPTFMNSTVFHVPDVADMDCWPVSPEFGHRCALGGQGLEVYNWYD
UniProt Q8IV63: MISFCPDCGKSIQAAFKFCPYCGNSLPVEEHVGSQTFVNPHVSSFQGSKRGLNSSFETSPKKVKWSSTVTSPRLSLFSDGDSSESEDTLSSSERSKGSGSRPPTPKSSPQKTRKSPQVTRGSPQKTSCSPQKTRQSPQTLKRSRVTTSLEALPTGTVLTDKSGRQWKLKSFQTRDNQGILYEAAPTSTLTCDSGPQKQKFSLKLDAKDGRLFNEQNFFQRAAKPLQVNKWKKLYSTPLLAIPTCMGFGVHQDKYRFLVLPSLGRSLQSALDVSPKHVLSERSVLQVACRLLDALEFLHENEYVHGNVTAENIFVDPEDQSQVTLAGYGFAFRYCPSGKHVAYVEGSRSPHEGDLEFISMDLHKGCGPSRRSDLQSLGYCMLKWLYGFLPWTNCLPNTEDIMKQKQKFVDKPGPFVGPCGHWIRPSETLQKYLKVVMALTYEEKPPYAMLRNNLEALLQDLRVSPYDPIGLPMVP
UniProt Q9H4A3: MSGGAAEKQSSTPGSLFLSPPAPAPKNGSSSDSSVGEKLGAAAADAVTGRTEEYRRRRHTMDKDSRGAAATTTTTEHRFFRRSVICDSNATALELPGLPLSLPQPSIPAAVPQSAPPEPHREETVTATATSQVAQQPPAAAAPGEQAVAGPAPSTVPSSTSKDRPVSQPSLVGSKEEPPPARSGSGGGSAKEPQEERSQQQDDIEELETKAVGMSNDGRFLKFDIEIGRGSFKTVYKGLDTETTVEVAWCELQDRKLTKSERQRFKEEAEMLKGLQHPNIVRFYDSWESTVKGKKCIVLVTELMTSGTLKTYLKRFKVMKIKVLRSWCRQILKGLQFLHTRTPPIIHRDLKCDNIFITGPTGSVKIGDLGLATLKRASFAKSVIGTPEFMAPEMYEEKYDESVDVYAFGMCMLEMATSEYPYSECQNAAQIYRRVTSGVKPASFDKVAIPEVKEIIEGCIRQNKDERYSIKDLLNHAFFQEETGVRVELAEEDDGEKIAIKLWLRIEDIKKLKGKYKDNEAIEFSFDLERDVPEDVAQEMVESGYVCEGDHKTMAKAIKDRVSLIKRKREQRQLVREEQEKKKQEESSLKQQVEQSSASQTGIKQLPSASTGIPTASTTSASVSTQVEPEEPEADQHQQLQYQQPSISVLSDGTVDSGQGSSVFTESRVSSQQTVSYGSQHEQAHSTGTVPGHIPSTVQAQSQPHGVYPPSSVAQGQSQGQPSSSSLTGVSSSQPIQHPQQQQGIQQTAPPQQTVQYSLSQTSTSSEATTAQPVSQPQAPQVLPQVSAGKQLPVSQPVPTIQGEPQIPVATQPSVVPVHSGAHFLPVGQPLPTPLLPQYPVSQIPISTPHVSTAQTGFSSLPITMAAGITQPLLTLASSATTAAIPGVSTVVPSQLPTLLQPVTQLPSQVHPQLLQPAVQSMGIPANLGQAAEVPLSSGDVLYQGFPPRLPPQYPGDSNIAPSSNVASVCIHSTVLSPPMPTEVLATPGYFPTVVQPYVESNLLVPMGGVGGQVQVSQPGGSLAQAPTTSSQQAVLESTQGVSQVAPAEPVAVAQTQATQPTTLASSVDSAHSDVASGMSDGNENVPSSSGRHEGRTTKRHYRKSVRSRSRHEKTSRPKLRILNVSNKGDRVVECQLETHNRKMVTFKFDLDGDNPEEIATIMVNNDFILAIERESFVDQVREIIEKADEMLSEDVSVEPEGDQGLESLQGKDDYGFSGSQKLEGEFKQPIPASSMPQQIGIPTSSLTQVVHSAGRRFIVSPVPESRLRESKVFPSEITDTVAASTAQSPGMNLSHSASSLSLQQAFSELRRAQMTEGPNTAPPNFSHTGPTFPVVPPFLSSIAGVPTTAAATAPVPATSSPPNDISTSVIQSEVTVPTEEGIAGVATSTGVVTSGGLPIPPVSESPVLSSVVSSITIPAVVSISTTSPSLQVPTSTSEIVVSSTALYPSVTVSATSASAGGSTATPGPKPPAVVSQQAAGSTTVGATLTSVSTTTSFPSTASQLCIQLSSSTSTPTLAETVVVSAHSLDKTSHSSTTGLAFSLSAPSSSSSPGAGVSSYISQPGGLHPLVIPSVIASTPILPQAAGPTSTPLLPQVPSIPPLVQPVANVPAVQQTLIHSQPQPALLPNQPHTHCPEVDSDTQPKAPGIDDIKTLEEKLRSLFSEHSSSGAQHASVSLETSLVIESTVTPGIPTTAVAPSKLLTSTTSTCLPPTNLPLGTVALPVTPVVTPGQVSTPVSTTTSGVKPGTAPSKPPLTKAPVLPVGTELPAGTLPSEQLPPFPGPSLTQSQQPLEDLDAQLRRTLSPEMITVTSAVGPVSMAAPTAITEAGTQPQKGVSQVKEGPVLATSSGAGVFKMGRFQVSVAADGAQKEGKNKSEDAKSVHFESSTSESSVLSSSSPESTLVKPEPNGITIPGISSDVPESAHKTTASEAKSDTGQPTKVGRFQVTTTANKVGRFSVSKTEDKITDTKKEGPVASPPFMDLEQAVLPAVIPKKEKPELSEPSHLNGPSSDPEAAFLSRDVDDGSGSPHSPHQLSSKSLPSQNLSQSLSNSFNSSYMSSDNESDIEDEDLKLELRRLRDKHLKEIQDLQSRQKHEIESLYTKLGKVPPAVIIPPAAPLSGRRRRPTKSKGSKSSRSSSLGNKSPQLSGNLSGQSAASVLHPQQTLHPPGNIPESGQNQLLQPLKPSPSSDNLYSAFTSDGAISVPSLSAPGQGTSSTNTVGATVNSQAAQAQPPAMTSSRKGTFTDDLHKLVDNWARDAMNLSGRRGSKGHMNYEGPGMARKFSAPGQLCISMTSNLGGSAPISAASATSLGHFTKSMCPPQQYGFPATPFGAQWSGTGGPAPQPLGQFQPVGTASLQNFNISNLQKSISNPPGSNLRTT
UniProt Q15061: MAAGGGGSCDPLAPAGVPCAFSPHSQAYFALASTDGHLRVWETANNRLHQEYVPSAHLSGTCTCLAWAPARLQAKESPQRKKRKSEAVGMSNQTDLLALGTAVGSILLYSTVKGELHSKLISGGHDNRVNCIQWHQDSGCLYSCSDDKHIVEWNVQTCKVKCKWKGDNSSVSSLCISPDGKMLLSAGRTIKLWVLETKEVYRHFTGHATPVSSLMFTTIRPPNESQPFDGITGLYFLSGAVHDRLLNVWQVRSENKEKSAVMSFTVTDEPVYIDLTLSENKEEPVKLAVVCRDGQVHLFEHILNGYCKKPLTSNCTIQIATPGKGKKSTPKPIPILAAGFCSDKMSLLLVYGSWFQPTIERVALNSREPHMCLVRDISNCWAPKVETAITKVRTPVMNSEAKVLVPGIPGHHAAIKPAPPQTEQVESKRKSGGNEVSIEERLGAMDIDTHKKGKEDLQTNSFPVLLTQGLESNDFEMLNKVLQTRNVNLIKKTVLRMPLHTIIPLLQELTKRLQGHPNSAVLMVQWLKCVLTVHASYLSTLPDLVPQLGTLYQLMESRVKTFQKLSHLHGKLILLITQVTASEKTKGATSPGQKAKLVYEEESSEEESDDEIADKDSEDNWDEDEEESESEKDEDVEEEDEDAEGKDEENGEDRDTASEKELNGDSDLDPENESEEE
UniProt Q96JG6: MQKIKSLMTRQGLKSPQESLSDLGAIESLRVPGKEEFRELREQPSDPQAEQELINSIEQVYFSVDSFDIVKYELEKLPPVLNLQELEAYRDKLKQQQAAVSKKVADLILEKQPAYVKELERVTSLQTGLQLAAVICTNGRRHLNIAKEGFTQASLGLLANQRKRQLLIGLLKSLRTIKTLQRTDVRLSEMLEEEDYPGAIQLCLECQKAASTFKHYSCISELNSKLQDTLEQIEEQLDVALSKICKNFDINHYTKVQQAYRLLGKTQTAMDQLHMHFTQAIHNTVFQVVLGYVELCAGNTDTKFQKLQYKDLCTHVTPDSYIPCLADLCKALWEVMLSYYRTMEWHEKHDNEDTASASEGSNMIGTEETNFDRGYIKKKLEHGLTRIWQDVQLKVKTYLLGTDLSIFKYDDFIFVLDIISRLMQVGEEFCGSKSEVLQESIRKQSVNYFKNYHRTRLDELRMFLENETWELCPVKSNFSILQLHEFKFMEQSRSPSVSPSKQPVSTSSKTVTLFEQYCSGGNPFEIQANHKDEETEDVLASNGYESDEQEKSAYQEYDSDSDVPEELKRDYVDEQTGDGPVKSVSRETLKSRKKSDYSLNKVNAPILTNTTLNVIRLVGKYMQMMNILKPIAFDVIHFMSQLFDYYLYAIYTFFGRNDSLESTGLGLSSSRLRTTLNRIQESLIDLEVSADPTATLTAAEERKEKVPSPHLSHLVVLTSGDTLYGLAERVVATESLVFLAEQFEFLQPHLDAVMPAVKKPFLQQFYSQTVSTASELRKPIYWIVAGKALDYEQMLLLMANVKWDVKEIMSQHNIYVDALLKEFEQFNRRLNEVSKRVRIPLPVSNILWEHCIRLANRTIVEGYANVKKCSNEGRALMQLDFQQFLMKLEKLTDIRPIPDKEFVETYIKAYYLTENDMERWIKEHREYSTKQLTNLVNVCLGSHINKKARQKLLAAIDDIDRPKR
UniProt Q5JSH3: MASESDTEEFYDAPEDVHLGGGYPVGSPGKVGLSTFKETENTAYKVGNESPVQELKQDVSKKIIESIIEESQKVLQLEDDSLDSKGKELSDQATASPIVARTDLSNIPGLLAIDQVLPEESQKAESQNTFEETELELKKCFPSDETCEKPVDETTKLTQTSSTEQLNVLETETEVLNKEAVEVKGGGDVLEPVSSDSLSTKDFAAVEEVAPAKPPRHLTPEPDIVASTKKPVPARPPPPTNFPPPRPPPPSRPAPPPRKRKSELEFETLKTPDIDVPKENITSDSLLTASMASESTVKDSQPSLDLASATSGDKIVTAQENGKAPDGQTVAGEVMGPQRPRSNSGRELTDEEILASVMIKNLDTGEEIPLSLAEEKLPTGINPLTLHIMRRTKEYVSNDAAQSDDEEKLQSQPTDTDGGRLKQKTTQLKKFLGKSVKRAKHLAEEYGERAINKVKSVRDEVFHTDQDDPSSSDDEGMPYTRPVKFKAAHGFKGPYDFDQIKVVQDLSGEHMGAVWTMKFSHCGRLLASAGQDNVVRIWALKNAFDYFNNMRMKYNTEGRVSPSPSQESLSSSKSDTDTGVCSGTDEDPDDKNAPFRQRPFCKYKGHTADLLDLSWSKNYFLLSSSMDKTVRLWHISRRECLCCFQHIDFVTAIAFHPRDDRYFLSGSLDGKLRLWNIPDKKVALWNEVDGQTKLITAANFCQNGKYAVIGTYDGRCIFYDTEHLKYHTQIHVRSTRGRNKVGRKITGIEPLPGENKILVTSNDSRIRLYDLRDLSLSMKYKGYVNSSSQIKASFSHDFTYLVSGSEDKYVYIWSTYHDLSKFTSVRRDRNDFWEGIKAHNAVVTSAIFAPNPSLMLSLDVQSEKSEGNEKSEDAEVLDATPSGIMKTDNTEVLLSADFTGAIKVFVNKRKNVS

Legend:
Assay in all cases: log2 fold change, soluble protein after heating vs DMSO (PISA); higher = thermal stabilisation; K562 cells, 10 uM, 30 min; active = over 0.2 and 3.5 SD of the protein, either way, in both replicates (recomputed)
[1] = compound: NC(=O)Nc1cc(-c2cccc(F)c2)sc1C(=O)N[C@H]1CCCNC1
In short: (§1)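 Aliquots of K562 cells (2×10^6 cells/mL) treated with 10 μM compound for 30 min were heated for 3 min over 48°C-58°C. After pooling and extraction in PBS with 0.5% NP-40 at 4°C, soluble protein from a 21,000xg, 90 min spin was quantified by TMTpro 16plex LC-MS/MS with channel sums equalised. Thermal stability is expressed against control samples, from duplicates, as a log2 fold change.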

[2] = compound: NC(=O)c1cnc(N[C@@H]2CCCC[C@@H]2N)nc1Nc1cccc(-n2nccn2)c1
In short: as §1

[3] = compound: NC1(c2ccc(-c3nc4ccn5c(=O)[nH]nc5c4cc3-c3ccccc3)cc2)CCC1
In short: as §1

[4] = compound: NCC(=O)Nc1ccc(-n2nc(C(F)(F)F)cc2-c2ccc3c(ccc4ccccc43)c2)cc1
In short: as §1

[5] = compound: Nc1ccccc1NC(=O)c1ccc(CNC(=O)OCc2cccnc2)cc1 [entinostat]
In short: as §1

[6] = compound: O=C(CCCCCCC(=O)Nc1ccccc1)NO [vorinostat]
In short: as §1

[7] = compound: O=C(CCCCCCNC(=O)c1cnc(N(c2ccccc2)c2ccccc2Cl)nc1)NO [citarinostat]
In short: as §1

[8] = compound: O=C(O)c1ccc2c(c1)nc(Nc1cccc(Cl)c1)c1ccncc12 [silmitasertib]
In short: as §1

[9] = compound: O=C1NC(=O)C(c2cnc3ccccn23)=C1c1cn2c3c(cc(F)cc13)CN(C(=O)N1CCCCC1)CC2
In short: as §1

[10] = compound: c1cc(OCCN2CCCCC2)cc(-c2n[nH]c3ccc(-c4nnc[nH]4)cc23)c1
In short: as §1

Measured: log2 fold change

VDAC3 (UniProt Q9Y277)
inactive: [1] -0.015 | [2] -0.046 | [3] 0.001 | [4] -0.017 | [5] -0.012 | [6] -0.019 | [7] 0.016 | [8] -0.005 | [9] -0.03 | [10] -0.024

WDR89 (UniProt Q96FK6)
inactive: [1] 0.04 | [2] 0.032 | [3] -0.005 | [4] 0.032 | [5] 0.002 | [6] 0.024 | [7] -0.01 | [8] -0.033 | [9] -0.028 | [10] -0.094

WDR6 (UniProt Q9NNW5)
inactive: [1] 0.006 | [2] -0.049 | [3] -0.075 | [4] -0.066 | [5] 0.022 | [6] 0.04 | [7] -0.009 | [8] 0.02 | [9] 0.037 | [10] 0.032

WDCP (UniProt Q9H6R7)
inactive: [1] 0.062 | [2] 0.049 | [3] -0.011 | [4] -0.025 | [5] 0.019 | [6] 0.037 | [7] 0.118 | [8] 0.172 | [9] -0.033 | [10] -0.035

VPS36 (UniProt Q86VN1)
inactive: [1] -0.008 | [2] -0.018 | [3] -0.068 | [4] -0.056 | [5] -0.015 | [6] 0.008 | [7] 0.039 | [8] 0.004 | [9] 0.041 | [10] -0.054

WDTC1 (UniProt Q8N5D0)
inactive: [1] -0.006 | [2] -0.001 | [3] -0.282 | [4] 0.018 | [5] -0.012 | [6] 0.036 | [7] -0.002 | [8] 0.027 | [9] -0.048 | [10] -0.151

VRK3 (UniProt Q8IV63)
inactive: [1] 0.047 | [2] 0.102 | [3] -0.067 | [4] -0.053 | [5] 0.056 | [6] 0.269 | [7] 0.029 | [8] -0.023 | [9] -0.145 | [10] -0.121

WNK1 isoform 7 (UniProt Q9H4A3)
inactive: [1] 0.002 | [2] 0.001 | [3] -0.037 | [4] -0.042 | [5] 0.008 | [6] -0.05 | [7] 0.009 | [8] -0.062 | [9] -0.01 | [10] -0.063

WDR36 (UniProt Q8NI36)
inactive: [1] -0.036 | [2] 0.093 | [3] 0.131 | [4] 0.034 | [5] -0.058 | [6] 0.001 | [7] 0.013 | [8] 0.158 | [9] 0.157 | [10] -0.093

WDR7 (UniProt Q9Y4E6)
inactive: [1] -0.227 | [2] -0.017 | [3] 0.104 | [4] -0.019 | [5] 0.008 | [6] 0.036 | [7] -0.125 | [8] 0.032 | [9] 0.119 | [10] -0.088

WDSUB1 (UniProt Q8N9V3)
inactive: [1] -0.037 | [2] -0.054 | [3] -0.05 | [4] -0.017 | [5] -0.085 | [6] -0.003 | [7] 0.032 | [8] 0.001 | [9] -0.09 | [10] 0.035

WDR47 (UniProt O94967)
inactive: [1] 0.072 | [2] -0.023 | [4] -0.065 | [5] 0.002 | [6] -0.014 | [7] 0.014 | [8] 0.089 | [9] 0.004 | [10] 0.282
active: [3] -0.224

VPS25 (UniProt Q9BRG1)
inactive: [1] -0.009 | [2] 0 | [3] -0.089 | [4] -0.034 | [5] 0.045 | [6] 0.002 | [7] 0.068 | [8] 0.015 | [9] -0.098 | [10] -0.036

WDHD1 (UniProt O75717)
inactive: [1] -0.037 | [2] -0.054 | [3] -0.156 | [4] -0.106 | [5] 0.09 | [6] 0.119 | [7] 0.176 | [8] 0.025 | [9] -0.107 | [10] -0.001

WDR5 (UniProt P61964)
inactive: [1] 0.065 | [2] 0.039 | [3] 0.139 | [4] 0.035 | [5] -0.012 | [6] -0.019 | [7] 0.023 | [8] 0.037 | [9] 0.087 | [10] -0.074

WASH2P (UniProt Q6VEQ5)
inactive: [1] 0.067 | [2] -0.088 | [4] 0.02 | [5] 0.028 | [6] -0.016 | [7] 0.029 | [8] 0.06 | [9] 0.092 | [10] -0.045
active: [3] -0.314

VDAC1 (UniProt P21796)
inactive: [1] 0.025 | [2] 0 | [3] 0.008 | [4] 0.019 | [5] -0.002 | [6] -0.044 | [7] 0.039 | [8] -0.015 | [9] -0.019 | [10] -0.009

WDR13 (UniProt Q9H1Z4)
inactive: [1] 0.005 | [2] -0.05 | [3] -0.024 | [4] -0.024 | [5] -0.017 | [6] 0.051 | [7] 0.064 | [8] 0.022 | [9] -0.065 | [10] 0.021

WDR43 (UniProt Q15061)
inactive: [1] 0.023 | [2] 0.03 | [3] 0.068 | [4] -0.023 | [5] -0.029 | [6] -0.078 | [7] 0.007 | [8] 0.051 | [9] -0.007 | [10] -0.027

VPS35L (UniProt Q7Z3J2)
inactive: [1] -0.038 | [2] 0.004 | [3] -0.137 | [4] -0.012 | [5] 0.006 | [6] -0.039 | [7] 0.08 | [8] 0.111 | [9] -0.006 | [10] -0.062

VPS50 (UniProt Q96JG6)
inactive: [1] 0.003 | [2] -0.073 | [3] -0.11 | [4] -0.046 | [5] 0.06 | [6] 0.099 | [7] 0.068 | [8] 0.06 | [9] 0.037 | [10] 0.003

VPS13A (UniProt Q96RL7)
inactive: [1] 0.002 | [2] -0.025 | [3] -0.043 | [4] -0.009 | [5] -0.031 | [6] 0.044 | [7] 0.004 | [8] 0.004 | [9] 0.029 | [10] -0.007

VPS33B (UniProt Q9H267)
inactive: [1] -0.013 | [2] -0.154 | [3] -0.118 | [4] -0.018 | [5] 0.094 | [6] 0.072 | [7] 0.076 | [8] -0.011 | [9] 0.017 | [10] -0.057

VPS4A (UniProt Q9UN37)
inactive: [1] -0.042 | [2] -0.003 | [3] -0.155 | [4] -0.014 | [5] 0.036 | [6] 0.131 | [7] 0.02 | [8] 0.049 | [9] -0.007 | [10] -0.039

VTI1B (UniProt Q9UEU0)
inactive: [1] 0.023 | [2] -0.006 | [3] -0.084 | [4] -0.054 | [5] -0.031 | [6] -0.035 | [7] -0.001 | [8] 0.114 | [9] 0.054 | [10] -0.03

WDR44 (UniProt Q5JSH3)
inactive: [1] 0.05 | [2] -0.028 | [3] -0.018 | [4] -0.006 | [5] -0.036 | [6] -0.011 | [7] -0.006 | [8] -0.017 | [9] -0.032 | [10] -0.027

2 neighbouring entries already listed, quoted:
VPS13A (UniProt Q96RL7)
inactive: [1] 0.002 | [2] -0.025 | [3] -0.043 | [4] -0.009 | [5] -0.031 | [6] 0.044 | [7] 0.004 | [8] 0.004 | [9] 0.029 | [10] -0.007

VPS33B (UniProt Q9H267)
inactive: [1] -0.013 | [2] -0.154 | [3] -0.118 | [4] -0.018 | [5] 0.094 | [6] 0.072 | [7] 0.076 | [8] -0.011 | [9] 0.017 | [10] -0.057

Going on with the list:

WRNIP1 (UniProt Q96S55)
inactive: [1] -0.031 | [2] -0.04 | [3] -0.304 | [4] -0.08 | [5] 0.147 | [6] 0.15 | [7] 0.207 | [8] -0.04 | [9] -0.134 | [10] -0.148
